Values of other authors as cited in publication PMC9400510, “Interaction between glyphosate pesticide and amphiphilic peptides for colorimetric analysis” (Nanoscale Advances, 2022).

Settings: PNG detection, UV-vis methods

SMILES: Cc1cc(-c2cc(C)c(N)c(C)c2)cc(C)c1N [3,3′,5,5′-Tetramethylbenzidine]
- LOD: 1 mM
- Linear region: 2 to 150 mM
